Experimental data: PubChem BioAssay AID1224827 (NIAID, 2016)

Aim: 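Retest primary hits on a TNF reporter with six siRNAs per gene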 (follow-up of hits)
System: RAW264.7 G9 mouse macrophage reporter clone
Knock-down reagent: single siRNA against mouse genes, 100 nM siRNA
Timing: siRNA for 2 days, then LPS about 16 h
Treatment: bacterial lipopolysaccharide (LPS), 10 ng/ml, cells fixed after overnight (about 16 h) stimulation
Measured: 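TNF promoter reporter red fluorescence in nuclei, background subtracted, normalised per plate and to non-targeting control siRNA, as z-scores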
Direction: TNF reporter z-score, mean: higher = stronger Tnf promoter reporter signal
Call rule: 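An siRNA is called active when its mean z-score over replicates is at least +2 or at most -2; control wells get no call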
Shown is a random part of about 3,800 deposited reagents. About 2,200 of them (57%) count as active. 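Active means a strong reporter change in either direction; calls are per siRNA, not per gene; qiagen siRNAs gave weaker effects.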 The numbers tell different reagents against one gene apart. Not all columns of the deposit are shown.

gene symbol	reagent no.	TNF reporter z-score, mean	activity call
Htra2	1	-0.72	inactive
Htra2	2	-2.56	active
Htra2	3	-3.02	active
Htra2	4	4.74	active
Htra2	5	2.69	active
Htra2	6	-2.16	active
Nfyb	1	2.15	active
Nfyb	2	-0.334	inactive
Nfyb	3	-0.694	inactive
Nfyb	4	1.67	inactive
Nfyb	5	0.281	inactive
Nfyb	6	-2.5	active
Bmpr2	1	4.56	active
Bmpr2	2	0.213	inactive
Bmpr2	3	-3.2	active
Bmpr2	4	1.88	inactive
Bmpr2	5	-1.48	inactive
Bmpr2	6	-3.1	active
Ctps2	1	-2.08	active
Ctps2	2	-3.72	active
Ctps2	3	-4.77	active
Ctps2	4	1.7	inactive
Ctps2	5	1.56	inactive
Ctps2	6	0.971	inactive

Next part, starting with the last 2 of the part before.
gene symbol	reagent no.	TNF reporter z-score, mean	activity call
Ctps2	5	1.56	inactive
Ctps2	6	0.971	inactive
Psmb4	1	2.17	active
Psmb4	2	-1.34	inactive
Psmb4	3	-5.48	active
Psmb4	4	6.54	active
Psmb4	5	5.12	active
Psmb4	6	-0.241	inactive
Adsl	1	-1.19	inactive
Adsl	2	-2.98	active
Adsl	3	-4.43	active
Adsl	4	3.42	active
Adsl	5	2.3	active
Adsl	6	0.377	inactive
Gspt1	1	7.27	active
Gspt1	2	5.14	active
Gspt1	3	1.91	inactive
Gspt1	4	-1.51	inactive
Gspt1	5	-2.57	active
Gspt1	6	-3.45	active
